Measurements reported in PubChem BioAssay AID1259254 (NCATS, 2017).

Aim: 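Finding genes that stop cells copying their DNA twice in one cycle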 (primary screen)
Cell system: human HCT116 colorectal cancer cells
Reagent: single siRNA against human genes
Timing: 3 days
Measured: 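Nuclei stained with Hoechst and imaged; cell-cycle phase assigned by DNA content; G2 share scaled per plate, non-targeting siRNA 0%, GMNN siRNA 100%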
Reading the numbers: G2 robust z-score: higher = more G2 cells, more excess DNA replication
Hit rule: 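Active siRNAs have a G2 robust z of 5 or more median absolute deviations over the median, which in these data means about 38% or higher of GMNN control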
In all, the deposit lists about 59,000 reagents; shown is a part drawn at random. About 1,550 of them (2.6%) were called active. 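G2 share is only a proxy for re-replication; each gene was hit by three separate siRNAs, and active genes were retested.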 Reagents against one gene are numbered here. Further read-outs or replicates are left out here. Not stated in the record: the amount of reagent.

gene	reagent no.	G2 robust z-score	outcome
LDLR (GeneID 3949)	1	0.424	inactive
LDLR (GeneID 3949)	2	1.09	inactive
LDLR (GeneID 3949)	3	0.528	inactive
VIPR1 (GeneID 7433)	1	1.16	inactive
VIPR1 (GeneID 7433)	2	2.38	inactive
VIPR1 (GeneID 7433)	3	0.323	inactive
DDB1 (GeneID 1642)	1	5.19	active
DDB1 (GeneID 1642)	2	5.29	active
DDB1 (GeneID 1642)	3	4.02	inactive
INTS7 (GeneID 25896)	1	1.86	inactive
INTS7 (GeneID 25896)	2	-0.176	inactive
INTS7 (GeneID 25896)	3	-0.719	inactive
AGAP4 (GeneID 119016)	1	-0.434	inactive
AGAP4 (GeneID 119016)	2	-0.846	inactive
AGAP4 (GeneID 119016)	3	-0.434	inactive
GTF2A1 (GeneID 2957)	1	-0.852	inactive
GTF2A1 (GeneID 2957)	2	-0.817	inactive
GTF2A1 (GeneID 2957)	3	-0.0209	inactive
VSTM4 (GeneID 196740)	1	-0.571	inactive
VSTM4 (GeneID 196740)	2	-0.291	inactive
VSTM4 (GeneID 196740)	3	0.284	inactive
SKA2 (GeneID 348235)	1	0.686	inactive
SKA2 (GeneID 348235)	2	0.0263	inactive
SKA2 (GeneID 348235)	3	0.165	inactive
CD300LB (GeneID 124599)	1	-1.55	inactive
CD300LB (GeneID 124599)	2	-0.894	inactive
CD300LB (GeneID 124599)	3	-1.14	inactive
ANKRD40 (GeneID 91369)	1	-0.368	inactive
ANKRD40 (GeneID 91369)	2	0.892	inactive
ANKRD40 (GeneID 91369)	3	-0.563	inactive

11 consecutive records from above:
gene	reagent no.	G2 robust z-score	outcome
VSTM4 (GeneID 196740)	1	-0.571	inactive
VSTM4 (GeneID 196740)	2	-0.291	inactive
VSTM4 (GeneID 196740)	3	0.284	inactive
SKA2 (GeneID 348235)	1	0.686	inactive
SKA2 (GeneID 348235)	2	0.0263	inactive
SKA2 (GeneID 348235)	3	0.165	inactive
CD300LB (GeneID 124599)	1	-1.55	inactive
CD300LB (GeneID 124599)	2	-0.894	inactive
CD300LB (GeneID 124599)	3	-1.14	inactive
ANKRD40 (GeneID 91369)	1	-0.368	inactive
ANKRD40 (GeneID 91369)	2	0.892	inactive

Additional entries follow:
gene	reagent no.	G2 robust z-score	outcome
PHKA1P1 (GeneID 646780)	1	3.42	inactive
PHKA1P1 (GeneID 646780)	2	0.85	inactive
PHKA1P1 (GeneID 646780)	3	-0.594	inactive
SERTAD3 (GeneID 29946)	1	-0.132	inactive
SERTAD3 (GeneID 29946)	2	-1.21	inactive
SERTAD3 (GeneID 29946)	3	1.06	inactive
CPLX2 (GeneID 10814)	1	0.433	inactive
CPLX2 (GeneID 10814)	2	-0.0207	inactive
CPLX2 (GeneID 10814)	3	0.958	inactive
MBD4 (GeneID 8930)	1	-0.996	inactive
MBD4 (GeneID 8930)	2	0.655	inactive
MBD4 (GeneID 8930)	3	-0.207	inactive
H2BC12 (GeneID 85236)	1	-0.459	inactive
H2BC12 (GeneID 85236)	2	-0.902	inactive
H2BC12 (GeneID 85236)	3	-0.886	inactive
CHST2 (GeneID 9435)	1	0.101	inactive
CHST2 (GeneID 9435)	2	-0.0353	inactive
CHST2 (GeneID 9435)	3	-0.658	inactive
RAX (GeneID 30062)	1	1.3	inactive
RAX (GeneID 30062)	2	-1.22	inactive
RAX (GeneID 30062)	3	-0.246	inactive
NDUFS8 (GeneID 4728)	1	-1.08	inactive
NDUFS8 (GeneID 4728)	2	-1.12	inactive
NDUFS8 (GeneID 4728)	3	6.69	active
JHY (GeneID 79864)	1	-0.85	inactive
JHY (GeneID 79864)	2	2.46	inactive
JHY (GeneID 79864)	3	1.45	inactive
YIPF7 (GeneID 285525)	1	1.42	inactive
YIPF7 (GeneID 285525)	2	1.59	inactive
YIPF7 (GeneID 285525)	3	6.03	active
DCAF12L2 (GeneID 340578)	1	0.0373	inactive
DCAF12L2 (GeneID 340578)	2	-0.531	inactive
DCAF12L2 (GeneID 340578)	3	-1.24	inactive
CCDC60 (GeneID 160777)	1	0.237	inactive
CCDC60 (GeneID 160777)	2	0.0603	inactive
CCDC60 (GeneID 160777)	3	2.57	inactive
CDH3 (GeneID 1001)	1	-0.829	inactive
CDH3 (GeneID 1001)	2	1.35	inactive
CDH3 (GeneID 1001)	3	0.0113	inactive
